# Reference: the supplement of paper PMC11237882
# Some of the results follow. Values are worked out from sequencing counts and are noisy.
# T1: Homer1 EVH1 domain
# T1 chain: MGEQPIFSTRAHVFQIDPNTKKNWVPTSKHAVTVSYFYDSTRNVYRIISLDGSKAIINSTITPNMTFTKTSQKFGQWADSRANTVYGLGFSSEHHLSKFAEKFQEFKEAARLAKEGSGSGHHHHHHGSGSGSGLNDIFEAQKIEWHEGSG
# Biological target: T1, Homer1 EVH1 domain
# Experiment: enrichment score (AUC of log2 frequency ratio across FACS sorting rounds) (log2 AUC); higher = stronger enrichment for Homer1 EVH1 binding
row,Binder,enrichment score
1,VLPIQKYLEPVYFYIYTLFGLQAIYVTALYITSWLQ,4.19
2,NPSCPMIPLYRNLPDHSAATKPSLFLFLVSLLHIFF,-4.11
3,PSVFSFLNPLSPDIWMYVLLAYLGVSCVLFVIARFS,1.78
4,SPTDPVVPAVPIGPPPAGFRDILLREGTEGFARTVR,6.39
5,MLSRSRCVSRAFSRSLSAFQKGNCPLGRRSLPGVSF,-0.871
6,YIGAGICAGLALALIFGALIFKWYSHSKEKIQNLSL,1.34
7,WFWILLGLAYFASVLTTIGNWLRVVSRRTRAEMGGL,0.744
8,TVLFTLTSVVVLVITTDWISWDKLNRGFLPSDEVSR,-0.0837
9,EWAYGYRGKDCRANVYLLPTGEIVYFIASVVVLFNY,-2.84
10,SMDYLGASESEIVYLALLIPYLHFLIFLFILRCLEM,0.114
11,LPLLLKDELLMPSVVTTMAFFIACVTSFSIFEKTSE,3.11
12,NIEITPTPAQPAPALSPALGPTLSVLMAMLAGWSVL,4.56
13,DEKVSWWESLVLVLMYLIYIVIMKYNACIHQCFERR,0.968
14,FLPLALILFAIVSIELTIRNRDLGGQAGPQRAMRVL,3.33
15,TFGNTKPLSHFVSEPGPQKMPSMPTTSRQPSLLHYL,-2.62
16,PWLLPLWCYASGVLLTFAMSCTAHVSSCLSLRLRAT,1.83
17,FFDPLYPGTKYELGPALYLGWSASLISILGGLCLCS,-1.08
18,KMHFFNVPEPDGHIISPLLAGFYMFWTLIILLQVLI,3.89
19,MIWRSRAGAELFSLMALWEWIALSLHCWVLAVAAVS,0.535
20,MLLFVLTCLLAVFPAISTKSPIFGPEEVNSVEGNSV,0.0908
21,MAAGPIRVVLVLLGVLSACAASGHGSVAERKAGGEA,-1.31
22,SSTTVGFVVPFTIMLTCYFFIAQTIAGHFRKERIEG,4.09

row,Binder,enrichment score
1,IMGSGILGLSYAMANTGIILFIIMLLAVAILSLYSV,1.05
2,GSQGLGRHLPAERVAEFRRALLHYLDFGQKQAFGRL,3.92
3,RRGPRAVTSRGRAPAAQISPAPPAILTPVSRLQSAL,0.408
4,YLLGTSGVLFILTGIFVLIPVSWTANIIIRDFYNPA,2.66
5,WSYILGWVAVLMTFFAGIFYMCAYRVHECRRLSTPR,1.37
6,MASQLTQRGALFLLFFLTPAVTPTWYAGSGYYPDEN,2.25
7,SERKLLSKDDTSPPKDKGTWRKGIPSIMRKTFEKKP,-0.675
8,PHWGLYIFSLAQLFYTTVLVLCYVIYFTKLLGSPES,4.12
9,DLEKVKQRLIEIANHVDKFYRPLNIRIGVGRRGSVE,3.1
10,DPEYWKTILSCIYVFIVFGFTSFIMVIVHERVPDMQ,0.996
11,GINIMVPSCTILISYVFIVTSILHIKSTQGRSKAFS,2.37
12,PSTQPEEGRAPPPALGGGVWPFLPFPRPPEAPTQFS,-1.54
13,IASLVVWCMAVGISYISVYDHQGIFKRNNSRLMDEI,2.36
14,ITSFSFFIALAIILGISSKYAPDENCPDQNPRFRNW,3.27
15,HMFVKLKVIAESLSVILKSVLTAFLVLWLPHWGLYI,-0.881
16,YDKLSILKTLLSLTSFIPFSLFLTSLLFLFLSLVRH,1.29
17,IKKKANLNALDRYGRTALILAVCCGSASIVSLLLEQ,-0.945
18,PLLALGCLAVGIWGLVCCCCGGSGAGGARGAFGYGN,3.43
19,RRGGVTLGHKVLVCGAGAIGVVTLLVAKAMGAAQVV,2.05
20,MKAPAVLAPGILVLLFTLVQRSNGECKEALAKSEMN,0.397
21,MENVTTMNEFLLLGLTGVQELQPFFFGIFLIIYLIN,2.67
22,LGCIALLWVVKSTAASLAFPFLLLLTVPLRHCLLPR,-0.942
